Results as given in the supplement of paper PMC12889115.
The other results are listed elsewhere or left out. Values are raw readings; no control value is given beside them.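 In the initial screen, polymyxin B was used at a concentration that permeabilizes Salmonella's outer membrane but not its inner membrane. Maximum growth was set by DMSO wells with or without polymyxin B. Since plates varied, data were ranked per plate, and compounds giving the lowest OD600 advanced as hits.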

Tested on: Salmonella enterica serovar Typhimurium SL1344
Assay: bacterial growth OD600 after 18 h with compound and polymyxin B; higher = more bacterial growth (less inhibition)
Conditions: 50 µM, Mueller-Hinton broth

| SMILES | bacterial growth OD600 (polymyxin B 1 µg/mL) | bacterial growth OD600 (polymyxin B 0.75 µg/mL) |
| --- | --- | --- |
| CCN(CCO)c1ccc(-c2nc(Cc3ccc(Cl)cc3)no2)cn1 | 0.007 |  |
| Cc1nc(N2CCC(C(=O)N[C@@H](C)c3ccccc3)CC2)nc2cc(S(C)(=O)=O)ccc12 |  | 0.91 |
| Cc1cnc(C(=O)N2CCCC(C(=O)c3ccc(Oc4ccccc4)cc3)C2)cn1 (centres undefined) | 0.553 |  |
| O=C(CCc1ccccc1)Nc1ccnn1C1CCN(Cc2nccs2)CC1 | 0.901 |  |
| CCCc1cc(CN(C)C(=O)CC2(c3ccccc3Cl)CC(=O)N(CCCOC)C2=O)n[nH]1 (centres undefined) |  | 0.718 |
| CCNC(=O)c1cn(CC(C)C)cc(C(=O)NCc2ccc(OC)cc2)c1=O |  | 0.751 |
| COc1ccc2c(c1)OC(C)CN(C(=O)/C(F)=C/c1ccccc1)C2 (centres undefined) |  | 0.002 |
| Cc1ccccc1CC(C1CCN(C(=O)c2ccc3ncccc3c2)CC1)N(C)C(=O)Cn1cccn1 (centres undefined) |  | 0.805 |
| COc1ccc(CCC(=O)N2CCCC(c3nc(C)ncc3-c3cccc(C)c3)C2)cc1OC (centres undefined) |  | 1.04 |
| COc1cc(OC)c(CN2CCC(CO)(CCOc3ccccc3)CC2)c(OC)c1 | 0.817 |  |
| COc1ccc(CN2CCNC(=O)C2CC(=O)N(C)CCc2ccccc2)c(F)c1 (centres undefined) | 0.84 |  |
| O=C(/C=C/c1ccccc1)N1CCCC(c2nc(-c3ccncc3)ncc2-c2ccccc2)C1 (centres undefined) |  | -0.005 |
| CN(Cc1ccccn1)C(=O)CC1(c2cccc(C(F)(F)F)c2)CC(=O)N(C2CC2)C1=O (centres undefined) |  | 0.851 |
| O=C(c1ccc(N2CCC(NCCC(c3ccccc3)c3ccccc3)CC2)cc1)N1CCOCC1 |  | 1.02 |
| Cc1nc(N2CCC(C(=O)N3CCN(C(=O)c4ccco4)CC3)CC2)nc2ccc(C(C)C)cc12 |  | 0.811 |
| CN(C(=O)CC1C(=O)NCCN1Cc1ccccn1)C1CC(C)(C)NC(C)(C)C1 (centres undefined) | 1.02 |  |
| COc1ccc(C(=O)NC2CC2)c(OC2CCN(C3Cc4ccccc4C3)CC2)c1 |  | 0.745 |
| CCn1ccnc1CN(C)C(=O)c1cn(Cc2ccccc2Cl)nn1 | 0.843 |  |
| COCCN1CCCC2(CCN(C(=O)CC3CCCCC3)C2)C1=O (centres undefined) | 0.917 |  |

3 entries already listed, arranged by count of non-hydrogen atoms, low to high:

| SMILES | bacterial growth OD600 (polymyxin B 1 µg/mL) | bacterial growth OD600 (polymyxin B 0.75 µg/mL) |
| --- | --- | --- |
| COc1ccc2c(c1)OC(C)CN(C(=O)/C(F)=C/c1ccccc1)C2 (centres undefined) |  | 0.002 |
| CN(C(=O)CC1C(=O)NCCN1Cc1ccccn1)C1CC(C)(C)NC(C)(C)C1 (centres undefined) | 1.02 |  |
| COc1ccc(CCC(=O)N2CCCC(c3nc(C)ncc3-c3cccc(C)c3)C2)cc1OC (centres undefined) |  | 1.04 |
